PubChem BioAssay AID1259262 – Sanger Institute – 2017

- Test: 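Kinase knock-downs that strengthen killing by targeted cancer drugs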 (follow-up of hits)
- Cells: LS513 human colorectal cancer cells
- Reagents: single siRNA against human genes
- Conditions: anchor drug or DMSO vehicle: cetuximab 5 µg/ml, trametinib 10 nM or BYL719 1 µM; exposure length not given
- Measured: 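Per anchor drug, a replicate-averaged synergy score, plus viability as a fraction of the non-targeting control siRNA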
- Scale: synergy score with trametinib and synergy score with BYL719 and synergy score with cetuximab: higher = stronger synergistic loss of viability with drug; viability, siRNA with trametinib and viability, siRNA with vehicle only: higher = more viable cells
- Rule for the call: 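Called active if at least one of the three drugs gives a synergy score over 0.10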
- Calls: active = synergy with at least one drug; inactive = no synergy with any drug
The deposit covers 160 reagents; shown is an unselected part. In the full data, 93 (58%) got an active call. 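Calls refer to single siRNAs; gene-level validation required two or more siRNAs in several lines; synergy score formula unstated.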 Reagents against one gene are numbered here. Viability is capped at 1. No sequences are given here. The record does not give: the amount of reagent, the time to read-out.

Target gene	siRNA no.	synergy score with trametinib	synergy score with BYL719	synergy score with cetuximab	viability, siRNA with trametinib (fraction of control)	viability, siRNA with vehicle only (fraction of control)	Call
CAMK2N1	1	0.0945	-0.19	-0.134	0.34	0.799	inactive
CAMK2N1	2	-0.0843	0.428	-0.117	0.518	0.797	
CAMK2N1	3	0.0941	-0.0115	-0.0179	0.323	0.767	inactive
CAMK2N1	4	0.0363	-0.202	-0.158	0.464	0.919	inactive
SYNCRIP	1	0.183	-0.0967	0.0628	0.0481	0.426	active
SYNCRIP	2	0.0606	-0.00701	-0.0222	0.477	0.988	inactive
SYNCRIP	3	0.109	-0.109	-0.107	0.161	0.496	active
SYNCRIP	4	0.126	-0.0883	-0.0358	0.376	0.923	active
CHD4	1	-0.0145	-0.128	-0.0542	0.176	0.297	inactive
CHD4	2	0.117	-0.0984	0.00425	0.0727	0.348	active
CHD4	3	0.0717	-0.00221	0.0136	0.226	0.547	inactive
CHD4	4	0.0539	-0.112	-0.0164	0.375	0.789	inactive
GUCY2D	1	0.14	-0.0831	0.0189	0.404	1	active
GUCY2D	2	0.341	-0.011	0.0382	0.203	1	active
GUCY2D	3	0.189	-0.0643	-0.0125	0.198	0.711	active
GUCY2D	4	0.0913	-0.112	-0.0537	0.452	1	inactive
PRAG1	1	0.166	-0.188	-0.00391	0.267	0.797	active
PRAG1	2	0.197	0.119	-0.0101	0.346	1	active
PRAG1	3	-0.135	-0.0707	-0.178	0.561	0.783	inactive
PRAG1	4	0.0222	-0.216	-0.11	0.522	1	inactive
BRAF	1	-0.174	-0.161	-0.293	0.515	0.627	inactive
BRAF	2	0.154	-0.0788	-0.00402	0.151	0.56	active
BRAF	3	0.155	-0.101	-0.019	0.114	0.496	active
BRAF	4	0.0133	-0.0874	-0.217	0.402	0.764	inactive
PAK1	1	0.249	-0.0869	-0.0765	0.194	0.816	active
PAK1	2	0.133	-0.0401	0.0122	0.135	0.493	active
PAK1	3	0.255	-0.00191	-0.159	0.123	0.696	active
PAK1	4	0.263	-0.16	-0.0455	0.234	0.912	active
IKBKB	1	0.132	-0.164	-0.103	0.324	0.838	active
IKBKB	2	-0.0784	-0.157	-0.0219	0.513	0.799	inactive
IKBKB	3	0.0209	-0.217	-0.167	0.412	0.796	inactive
IKBKB	4	0.0367	-0.172	-0.0751	0.272	0.567	inactive
IRAK1	1	0.123	0.083	-0.131	0.385	0.935	active
IRAK1	2	0.0417	0.0119	0.00495	0.48	0.959	inactive
IRAK1	3	0.125	-0.0252	0.0491	0.332	0.841	active
IRAK1	4	-0.0372	0.464	-0.152	0.547	0.938	
CRIM1	1	0.0381	-0.0409	-0.216	0.376	0.762	inactive
CRIM1	2	0.139	-0.195	-0.0313	0.347	0.892	active
CRIM1	3	0.293	0.106	-0.0327	0.198	0.902	active
CRIM1	4	0.311	-0.143	-0.202	0.0766	0.714	active

Just “synergy score with trametinib”, for 7 of the entries above:
SYNCRIP #1	0.183
SYNCRIP #2	0.0606
SYNCRIP #3	0.109
SYNCRIP #4	0.126
CHD4 #1	-0.0145
CHD4 #2	0.117
CHD4 #3	0.0717
